Assay results as given in the supplement of paper PMC12823440, “Inhibitors supercharge kinase turnover through native proteolytic circuits” (Nature, 2025).
Where a name gives a salt, the structure may show the parent alone. Some of the results follow. The calls rarely recur for the same compound in another form.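 Kinases were expressed as nanoluciferase fusions in K562 cells and luminescence was read every 4 h between 2 and 18 h as percent of control, DMSO set to 100% and a positive control to 0%. A time point counts as decreased when the signal drops significantly (2 sigma). The hit call is the authors' own, does not follow from the count of time points alone, and its rule is not shown.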

By UniProt entry, the sequences of proteins in these tests, tags left out.
UniProt P28482, whole entry: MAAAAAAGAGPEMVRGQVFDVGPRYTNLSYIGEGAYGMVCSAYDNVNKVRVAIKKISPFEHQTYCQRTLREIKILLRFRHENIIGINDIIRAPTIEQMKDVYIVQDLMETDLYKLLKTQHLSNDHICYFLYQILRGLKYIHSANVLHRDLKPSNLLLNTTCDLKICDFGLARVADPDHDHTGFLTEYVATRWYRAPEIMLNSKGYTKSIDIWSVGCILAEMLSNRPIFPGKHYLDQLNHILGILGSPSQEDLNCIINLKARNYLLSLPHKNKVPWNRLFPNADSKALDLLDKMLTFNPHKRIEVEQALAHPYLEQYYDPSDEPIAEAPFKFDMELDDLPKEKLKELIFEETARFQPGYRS

biological target: MAPK1 (UniProt P28482); test: kinase-Nluc reporter destabilization hit call (1 = scored as downregulated) (binary); higher = compound decreases kinase abundance; conditions: K562; 2-18 h

kinase-Nluc reporter destabilization hit call, inactive:
CC(C1CC1)n1cnc2c(NCc3cccc(C(F)(F)F)c3)nc(NCCN(C)C)nc21 (stereo not drawn) (10 µM) 0
COc1cc2nc(NC3CC3)nc(NC3CCN(C(C)C)CC3)c2cc1OC (10 µM) 0
Cc1nn(CC(F)(F)F)cc1Nc1ncc(Br)c(NCc2ccc(S(N)(=O)=O)cc2)n1 (10 µM) 0
N#C/C(=C/c1ccc(O)c(O)c1)C(=O)N1CCc2ccccc21 [Tyrphostin AG 528] (10 µM) 0
Cc1nc2c(NCc3cccc(S(C)(=O)=O)c3)nccn2c1-c1ccc(O)c(F)c1 (10 µM) 0
CN(C)c1cc[n+](Cc2ccc(OCCOc3ccc(C[n+]4ccc(N(C)C)cc4)cc3)cc2)cc1 (10 µM) 0
O=C1CCC(N2C(=O)c3cccc(OCCCCCOc4ccc(CC(=O)Nc5cc(C6CCC6)[nH]n5)cc4)c3C2=O)C(=O)N1 (stereo not drawn) [PROTAC CDK9 Degrader-1] (10 µM) 0
CCOc1cc(=O)[nH]cc1-c1ccc(CC(=O)Nc2cc(C(C)(C)C(F)(F)F)on2)c(F)c1 (10 µM) 0
O=C(O)/C=C(\CCc1ccc(Cl)cc1)c1ccccc1 (10 µM) 0
CCc1c(C(=O)NNC(=O)[C@H](O)c2cc(F)cc(F)c2)ccc(O)c1C (10 µM) 0
O=c1cc(N2CCOCC2)oc2c(-c3cccc4c3sc3ccccc34)cccc12 (10 µM) 0
CN1CCN(c2ccc(-n3cc(-c4ccncc4OCC4CCNCC4)cn3)cc2)CC1 [MELK-8a (hydrochloride)] (10 µM) 0
Cc1ccc(C2CC(=O)NC(SCC(=O)Nc3nccs3)=C2C#N)cc1 (stereo not drawn) [Necrostatin-34] (10 µM) 0
CNc1cc2c(Nc3cccc(Br)c3)ncnc2cn1 (10 µM) 0
Cn1cc(-c2nc(N[C@@H]3CCCC[C@@H]3N)c(F)c3c2C(=O)NC3)cn1 [TAK-659 (hydrochloride)] (2 µM) 0
CC(=O)Nc1nc(C)c(-c2cc(C)c3c(c2)CN([C@@H](C)C2CC2)C3=O)s1 (10 µM) 0
CN(C)c1ccc(/C=C2\C(=O)Nc3ccccc32)c2ccccc12 (10 µM) 0
COc1ccc(-c2cc(=O)c3c(O)cc(O)cc3o2)cc1-c1c(O)cc(O)c2c(=O)cc(-c3ccc(O)cc3)oc12 [Bilobetin] (2.5 µM) 0
O=C(NCc1ccn[nH]1)c1cc([C@@H]2CCNC[C@H]2COc2ccc3c(c2)OCO3)ccc1F [GRK2-IN-1 (hydrochloride)] (10 µM) 0
Nc1ccc(C(=O)Nc2cccc(-c3nc(N4CCOCC4)c4oc5ncccc5c4n3)c2)cn1 (10 µM) 0
CCOC(=O)c1c(C)[nH]c(C=C2C(=O)Nc3ccccc32)c1C (10 µM) 0
CCCS(=O)(=O)N[C@H]1C[C@@H](N(C)c2ncnc3[nH]ccc23)C1 [Abrocitinib] (10 µM) 0
O=[N+]([O-])c1ccc(-c2nc(-c3ccc(F)cc3)c(-c3ccncc3)[nH]2)cc1 (10 µM) 0
O=C(O)c1c[nH]c2cc(Cl)c(-c3ccc(C4(O)CCC4)cc3)cc12 (10 µM) 0
CN1CCC(Nc2nc(Nc3ccc(Oc4ccccc4)cc3)c3c(=O)[nH]cc(Br)c3n2)CC1 (2.5 µM) 0
CO[C@]1(C(=O)N[C@@H](C)c2ccc(-n3cc(F)cn3)nc2)CC[C@H](c2nc(C)cc(Nc3cc(C)[nH]n3)n2)CC1 [Pralsetinib] (10 µM) 0
COc1c(Nc2ncc(Cl)c(N[C@H]3[C@@H](C(N)=O)[C@@H]4C=C[C@H]3C4)n2)ccc2c1CC[C@@H](N1CCOCC1)CC2 (10 µM) 0
CN1CCN(Cc2ccc(-c3cn(C4CCC(O)CC4)c4nc(NCCC5CC5)ncc34)cc2)CC1 (stereo not drawn) (2.5 µM) 0
C[C@@H]1COC(Nc2ccc3ncnc(Nc4ccc(OCc5nccs5)c(Cl)c4)c3c2)=N1 [Varlitinib] (10 µM) 0
CC(C)n1cnc2c(Nc3cccc(Cl)c3)nc(N[C@H]3CCCC[C@@H]3N)nc21 (2.5 µM) 0
Cc1n[nH]c2ncc(C(=O)N3CCC[C@H]3c3ccc(Cl)cc3)cc12 (10 µM) 0
COc1ccc2cc1Oc1ccc(cc1)C[C@H]1c3cc(c(OC)cc3CCN1C)Oc1c(O)c(OC)cc3c1[C@H](C2)N(C)CC3 [Fangchinoline] (2.5 µM) 0
CS[C@@]1(C(=O)Nc2ccc3[nH]nc(-c4ccc(OC(C)C)nc4)c3c2)CCN(CC(=O)N2CC=C(c3ccc(-c4ncn(C)n4)cc3)CC2)C1 (2.5 µM) 0
CC/C(=C(\c1ccccc1)c1ccc(OCCNC)cc1)c1ccccc1 [N-Desmethyltamoxifen (hydrochloride)] (2.5 µM) 0
CNC(=O)CN1CCC(Oc2cc3c(Nc4cccc(Cl)c4F)ncnc3cc2OC)CC1 [Sapitinib] (10 µM) 0
O=CN1CCN(c2ccc(C=C3C(=O)Nc4ccccc43)cc2)CC1 (10 µM) 0
CCCCC(=O)OCC(=O)[C@]1(O)Cc2c(O)c3c(c(O)c2[C@@H](O[C@H]2C[C@H](NC(=O)C(F)(F)F)[C@H](O)[C@H](C)O2)C1)C(=O)c1c(OC)cccc1C3=O [Valrubicin] (10 µM) 0
Fc1ccc(Cl)cc1-c1nc(Nc2ccncc2)c2nccnc2n1 (10 µM) 0

Entries from the list above with a cyano group (two):
kinase-Nluc reporter destabilization hit call, inactive:
N#C/C(=C/c1ccc(O)c(O)c1)C(=O)N1CCc2ccccc21 [Tyrphostin AG 528] (10 µM) 0
Cc1ccc(C2CC(=O)NC(SCC(=O)Nc3nccs3)=C2C#N)cc1 (stereo not drawn) [Necrostatin-34] (10 µM) 0
